Values from PubChem BioAssay AID1224830 (NIAID, 2016)
Purpose: 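Host factors that control LPS-induced TNF expression in human macrophages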 (primary screen). System: human THP-1 monocytic leukaemia cells, TNF dual-luciferase reporter clone, PMA-differentiated to macrophage-like cells. Reagent: siRNA pool against human genes, 50 nM. Duration: LPS for 4 h, given about 3 days after siRNA transfection. Challenge: bacterial LPS (TLR4 ligand), 10 ng/ml. Measured: 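TNF firefly reporter luminescence divided by renilla, normalised to the plate median, then turned into a robust z-score for each replicate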. Reading the numbers: TNF reporter robust z-score: higher = stronger TNF reporter response to LPS. Hit rule: 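Each well counts as active if its z-score is over 2.8 or under -1.5; controls are left without a call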.
The deposit covers about 18,000 reagents; this is an unselected part. Of all reagents, about 2,900 (16%) got an active call. 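Calls are made per well; low scores hint the gene aids the LPS response, high scores that it dampens it.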 A number with no mark means an inactive call. Repeated entries: four replicate wells of each siRNA pool. Reagent sequences are not shown.

target gene | TNF reporter robust z-score
TRIM51EP | 0.7
TRIM51EP | 0.82
TRIM51EP | -0.49
TRIM51EP | -0.12
DNAI3 | -0.78
DNAI3 | -0.23
DNAI3 | -0.29
DNAI3 | 0.17
BLOC1S2 | -0.9
BLOC1S2 | -0.33
BLOC1S2 | -0.22
BLOC1S2 | 0.19
TLN1 | -0.99
TLN1 | -0.83
TLN1 | -0.5
TLN1 | -0.13
NSG2 | 0.57
NSG2 | -1.05
NSG2 | 1.68
NSG2 | 0.89
UGT1A4 | -0.02
UGT1A4 | 0.73
UGT1A4 | 0.04
UGT1A4 | 1.25
SERPINI1 | -0.09
SERPINI1 | -0.47
SERPINI1 | 0.43
SERPINI1 | -0.16
HMCES | 1.47
HMCES | 3.55 (active)
HMCES | 2.85 (active)
HMCES | 2.16
MARCHF4 | 0.47
MARCHF4 | -0.55
MARCHF4 | -0.76
MARCHF4 | -1.12
PSG5 | -0.7
PSG5 | 0.5
PSG5 | -0.07
PSG5 | -0.03
TSGA10 | 0.26
TSGA10 | 11.3 (active)
TSGA10 | 0.89
TSGA10 | 1.33
PRAMEF12 | -0.75
PRAMEF12 | 1.44
PRAMEF12 | 1.06
PRAMEF12 | 2.2

7 entries from above, arranged by “TNF reporter robust z-score”, high to low.
target gene | TNF reporter robust z-score
TSGA10 | 11.3 (active)
TSGA10 | 1.33
TSGA10 | 0.89
PSG5 | 0.5
TSGA10 | 0.26
PSG5 | -0.03
PSG5 | -0.07
